We go through one molecule from publication PMC2734569, “Functional mapping of the fission yeast DNA polymerase δ B-subunit Cdc1 by site-directed and random pentapeptide insertion mutagenesis” (BMC Molecular Biology, 2009).

Numbering of substitutions follows the chain as printed. Results are given in words; binding and its absence hold for the method and conditions named. Tags and fused reporters may be left off the sequences shown.

Common to all, as to experiment: two-hybrid; LexA-Cdc1 bait (pBTM116 or pBTM116BN) with Gal4-Pol3 prey and co-expressed c-myc-tagged Cdc27 (pAA-Cdc27) in S. cerevisiae CTY10-5d; ONPG liquid culture beta-galactosidase assay, mean of triplicates, as percent of wild-type Cdc1
One experiment addresses T1, Cdc1-A4 (Schizosaccharomyces pombe, UniProt P87324 1-462, Pro303Ala).
T1 construct: Cdc1, S. pombe, point mutant; source: yeast two-hybrid fusion, in S. cerevisiae CTY10-5d
T1 sequence (looked up): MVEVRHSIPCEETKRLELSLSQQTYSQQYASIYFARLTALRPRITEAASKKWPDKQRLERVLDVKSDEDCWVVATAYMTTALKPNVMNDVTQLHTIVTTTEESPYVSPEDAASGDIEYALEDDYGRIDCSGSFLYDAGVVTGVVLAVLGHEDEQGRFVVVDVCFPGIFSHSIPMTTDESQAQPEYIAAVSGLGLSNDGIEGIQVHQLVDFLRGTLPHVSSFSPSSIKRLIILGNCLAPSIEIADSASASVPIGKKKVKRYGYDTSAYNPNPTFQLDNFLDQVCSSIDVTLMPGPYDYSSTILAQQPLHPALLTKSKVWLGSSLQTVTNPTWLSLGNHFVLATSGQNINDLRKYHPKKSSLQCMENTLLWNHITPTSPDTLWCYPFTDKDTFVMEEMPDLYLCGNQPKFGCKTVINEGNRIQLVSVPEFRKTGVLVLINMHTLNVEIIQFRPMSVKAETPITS

A further experiment addresses T2, Cdc1-A2 (Schizosaccharomyces pombe, UniProt P87324 1-462, Gly293Ala).
T2 construct: Cdc1, S. pombe, point mutant; source: yeast two-hybrid fusion, in S. cerevisiae CTY10-5d
T2 sequence (looked up): T1 sequence (looked up) with G293A, A303P

A further experiment has as its target T3, Cdc1-J15 (Schizosaccharomyces pombe, UniProt P87324 1-462, Gln-GlyValProLeuGln-Val).
T3 construct: Cdc1, S. pombe, with a pentapeptide inserted after residue 203; source: yeast two-hybrid fusion, in S. cerevisiae CTY10-5d
T3 sequence (looked up): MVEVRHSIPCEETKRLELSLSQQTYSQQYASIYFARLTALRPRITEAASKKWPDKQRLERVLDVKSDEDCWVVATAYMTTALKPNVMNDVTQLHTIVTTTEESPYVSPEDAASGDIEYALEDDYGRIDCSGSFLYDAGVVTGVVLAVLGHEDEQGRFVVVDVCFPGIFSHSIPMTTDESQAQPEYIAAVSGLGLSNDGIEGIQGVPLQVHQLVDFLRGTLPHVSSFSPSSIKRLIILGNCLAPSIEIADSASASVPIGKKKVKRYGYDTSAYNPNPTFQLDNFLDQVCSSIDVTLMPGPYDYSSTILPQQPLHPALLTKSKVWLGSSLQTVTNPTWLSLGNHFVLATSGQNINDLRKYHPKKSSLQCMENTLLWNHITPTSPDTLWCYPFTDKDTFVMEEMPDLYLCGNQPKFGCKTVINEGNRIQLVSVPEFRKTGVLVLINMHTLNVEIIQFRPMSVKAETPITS

In another experiment the target is T4, Cdc1-A10 (Schizosaccharomyces pombe, UniProt P87324 1-462, Asn328Ala | Pro329Ala).
T4 construct: Cdc1, S. pombe, double point mutant (A5 and A6 combined); source: yeast two-hybrid fusion, in S. cerevisiae CTY10-5d
T4 sequence (looked up): T1 sequence (looked up) with A303P, N328A, P329A

B1: Pol3 (fission yeast DNA polymerase delta catalytic subunit) (natural protein, Schizosaccharomyces pombe, UniProt P30316 1-1086, looked up)
chain: MTDRSSNEGVVLNKENYPFPRRNGSIHGEITDVKRRRLSERNGYGDKKGSSSKEKTSSFEDELAEYASQLDQDEIKSSKDQQWQRPALPAINPEKDDIYFQQIDSEEFTEGSVPSIRLFGVTDNGNSILVHVVGFLPYFYVKAPVGFRPEMLERFTQDLDATCNGGVIDHCIIEMKENLYGFQGNEKSPFIKIFTTNPRILSRARNVFERGEFNFEELFPVGVGVTTFESNTQYLLRFMIDCDVVGMNWIHLPASKYQFRYQNRVSNCQIEAWINYKDLISLPAEGQWSKMAPLRIMSFDIECAGRKGVFPDPSIDPVIQIASIVTQYGDSTPFVRNVFCVDTCSQIVGTQVYEFQNQAEMLSSWSKFVRDVDPDVLIGYNICNFDIPYLLDRAKSLRIHNFPLLGRIHNFFSVAKETTFSSKAYGTRESKTTSIPGRLQLDMLQVMQRDFKLRSYSLNAVCSQFLGEQKEDVHYSIITDLQNGTADSRRRLAIYCLKDAYLPQRLMDKLMCFVNYTEMARVTGVPFNFLLARGQQIKVISQLFRKALQHDLVVPNIRVNGTDEQYEGATVIEPIKGYYDTPIATLDFSSLYPSIMQAHNLCYTTLLDSNTAELLKLKQDVDYSVTPNGDYFVKPHVRKGLLPIILADLLNARKKAKADLKKETDPFKKAVLDGRQLALKVSANSVYGFTGATNGRLPCLAISSSVTSYGRQMIEKTKDVVEKRYRIENGYSHDAVVIYGDTDSVMVKFGVKTLPEAMKLGEEAANYVSDQFPNPIKLEFEKVYFPYLLISKKRYAGLFWTRTDTYDKMDSKGIETVRRDNCPLVSYVIDTALRKMLIDQDVEGAQLFTKKVISDLLQNKIDMSQLVITKALSKTDYAAKMAHVELAERMRKRDAGSAPAIGDRVAYVIIKGAQGDQFYMRSEDPIYVLENNIPIDAKYYLENQLSKPLLRIFEPILGEKASSLLHGDHTRTISMAAPSVGGIMKFAVKVETCLGCKAPIKKGKTALCENCLNRSAELYQRQVAQVNDLEVRFARLWTQCQRCQGSMHQDVICTSRDCPIFYMRIAEHKKLQQSVDLLKRFDEMSW
notes: DNA polymerase delta catalytic subunit Pol3, S. pombe; prey plasmid named pACT-Pol3 in the results and pGAD2F-Pol3 in the methods; also called Gal4-Pol3; pACT-Pol3; source: yeast two-hybrid fusion, in S. cerevisiae CTY10-5d
B1: the binding result with Cdc1-A4 is on record as “no binding (tested: <1% of wild type (Table 1))”; with Cdc1-A2 it was “no binding (tested: <1% of wild type (Table 1))”; with Cdc1-J15 it was “no binding (tested: 1% of wild type (Table 1); < 0.5% (text))”; with Cdc1-A10 it was “no binding (tested: <1% of wild type (Table 1))”.
